From PubChem BioAssay AID445 (National Center for Advancing Translational Sciences (NCATS), 2006)
The list shows a part of the results. The main result of the screen is listed elsewhere. These columns were measured beside it and carry no call. Compounds called inactive in the main read-out are mostly missing here. Potencies come from curve fits of mixed quality, noted in brackets.

assay: IkB Signaling; settings: ABC-DLBCL IkBa-CBG/CBR dual luciferase ratio (green luciferase fused to IkBa over red control in OCI-Ly3 lymphoma cells), 4 h; measured here: control luc red channel unless noted
Outline: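 Curves were fitted separately to fusion (green), unfused (red) and ratio luminescence, then classed by r2, magnitude and activity. Cells: OCI-Ly3, 4 h compound plus doxycycline at 37C; 10 uM MG-132 defined full response.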

For Cc1cc(C)c(S(=O)(=O)Nc2ccc3oc(C)c(C(=O)OC(C)C)c3c2)cc1C, which AC50 is on record?
Its AC50 is 31.6 µM [falling, partial curve].

With COc1cccc(Nc2nnc(-c3cc4ccc(O)cc4oc3=O)s2)c1 as the compound, how does the AC50 read?
Its AC50 is 0.316 µM [falling, full curve].

For Cc1nn(C)c2c1c(C(F)(F)F)cc(=O)n2CC(=O)NCc1ccc(OC(C)C)cc1, which AC50 is on record?
Its AC50 is 31.6 µM [falling, single point].

With CCOC(=O)c1ccccc1NC(=O)c1c(F)c(F)c(F)c(F)c1F as the compound, how does the AC50 read?
Its AC50 is 15.8 µM [falling, partial curve].

With COc1cc(Cn2c(=O)oc3ccc(C)cc32)ccc1OCCC(C)C as the compound, how does the AC50 read?
The AC50 was 12.6 µM [falling, single point].

With CC(C)(C)c1ccc(S(=O)(=O)N2CCC(Oc3ccc(-n4cnnn4)cc3)CC2)cc1 as the compound, how does the AC50 read?
Its AC50 is 0.794 µM [falling, full curve, poor fit].

With COc1cccc(C(c2nnnn2Cc2ccc(F)cc2)N2CCC(C(N)=O)CC2)c1OC (stereo not given) as the compound, how does the AC50 read?
Its AC50 is 15.8 µM [falling, partial curve].

Which AC50 does the source give for O=C(CSc1nc2ccsc2c(=O)n1Cc1ccc(F)cc1)NCc1ccc(Cl)cc1 here?
The AC50 was 0.158 µM [rising, full curve].

Which AC50 does the source give for CN1c2ccc(Cl)cc2-c2nc(SCC(=O)NCc3ccc(F)cc3)ncc2S1(=O)=O here?
Its AC50 is 12.6 µM [rising, partial curve, poor fit].

Which AC50 does the source give for CC1=C(C(=O)Nc2ccc(C)cc2C)C(c2ccccc2)n2nc(SCC(=O)c3ccc(C)cc3)nc2N1 (stereo not given) here?
Its AC50 is 7.94 µM [rising, single point].

For Cc1cc(Nc2ccc(Br)cc2)n2nc(-c3ccccc3C)nc2n1, which AC50 is on record?
The AC50 was 25.1 µM [falling, partial curve].

Which AC50 does the source give for Oc1ccc(-c2nc(-c3ccc(F)cc3)c(-c3ccncc3)[nH]2)cc1 here?
Its AC50 is 39.8 µM [falling, partial curve, poor fit].

For Cc1onc(-c2ccccc2)c1C(=O)Nc1nnc(COc2ccc(Cl)cc2)s1, which AC50 is on record?
Its AC50 is 7.94 µM [falling, partial curve].

For CC(C)(C)Cc1nc(-c2ccccn2)no1, which AC50 is on record?
The AC50 was 3.16 µM [falling, full curve].

Which AC50 does the source give for CCOC(=O)CSc1nc2sc(C(=O)O)c(C)c2c(=O)[nH]1 here?
The AC50 was 12.6 µM [falling, partial curve].

For COc1ccccc1NC(=O)CCC(=O)Nc1ccccc1OC, which AC50 is on record?
The AC50 was 12.6 µM [falling, partial curve].

Which AC50 does the source give for O=C1C=C(N2CCN(c3ccccn3)CC2)C(=O)c2c(O)ccc(O)c21 here?
The AC50 was 5.01 µM [rising, partial curve] [measured here: IkB-luc green channel].

For O=C(Nn1c(Cc2cccs2)nc2ccccc2c1=O)c1cccs1, which AC50 is on record?
The AC50 was 39.8 µM [falling, single point].

Which AC50 does the source give for COc1ccc(-c2nc(CSCC(=O)NCCc3ccc(C)cc3)c(C)o2)cc1OC here?
The AC50 was 31.6 µM [falling, single point].

With CCS(=O)(=O)c1ccccc1C(=O)N(Cc1cccnc1)c1nc2cc(C)c(C)cc2s1 as the compound, how does the AC50 read?
The AC50 was 2.51 µM [rising, partial curve].

For Cc1c(C(=O)NCc2ccc(Cl)cc2)sc2nc3n(c(=O)c12)CCCC3, which AC50 is on record?
Its AC50 is 31.6 µM [falling, single point].

For CCOc1ccc(CNC(=O)c2ccc(NC(=O)c3nsc4ccccc34)cc2)cc1, which AC50 is on record?
Its AC50 is 0.251 µM [falling, full curve].

For CC1(C)CC(=O)C2=C(C1)NC(SCC(=O)Nc1ccccc1)=C(C#N)C21CCCCC1, which AC50 is on record?
Its AC50 is 3.16 µM [falling, full curve].

With CCC(Cc1ccccc1)NC(=O)c1oc(=O)c2ccccc2c1-c1ccccc1 (stereo not given) as the compound, how does the AC50 read?
Its AC50 is 39.8 µM [falling, single point].

With Cc1cccc(C)c1OCCCCn1c(C2CC(=O)N(c3ccc(F)cc3)C2)nc2ccccc21 (stereo not given) as the compound, how does the AC50 read?
Its AC50 is 15.8 µM [falling, partial curve].

With Cc1cc(NC(c2nnc(-c3ccccc3)o2)c2ccccc2F)ccc1Br (stereo not given) as the compound, how does the AC50 read?
The AC50 was 15.8 µM [falling, single point].

For CCN1C(=O)c2cccc3c(S(=O)(=O)Nc4ccc(O)c(C(=O)O)c4)ccc1c23, which AC50 is on record?
The AC50 was 31.6 µM [falling, partial curve].

For CCOc1ccccc1C(=O)N(Cc1ccc(N(C)C)cc1)CC1CCCO1 (stereo not given), which AC50 is on record?
Its AC50 is 39.8 µM [falling, single point].

Which AC50 does the source give for CC(C)(C)OC(=O)N1CCC(c2c(C(=O)N3CCc4ccccc4C3)cnn2-c2ccc(Cl)cc2)CC1 here?
Its AC50 is 31.6 µM [falling, partial curve].

For O=C(O)c1c(F)c(F)c(F)c(F)c1-c1ccc(Cl)cc1, which AC50 is on record?
Its AC50 is 12.6 µM [falling, partial curve].

With Cc1cc(C)cc(C(=O)N2CC(=O)Nc3ccc(C)cc3C2c2ccccc2)c1 (stereo not given) as the compound, how does the AC50 read?
Its AC50 is 25.1 µM [falling, partial curve].

With c1ccc(C(c2cccs2)c2c[nH]c3ccccc23)cc1 (stereo not given) as the compound, how does the AC50 read?
Its AC50 is 12.6 µM [falling, partial curve].

For Cc1cccc(Cn2c(=O)n(Cc3ccco3)c(=O)c3ccccc32)c1, which AC50 is on record?
The AC50 was 39.8 µM [falling, single point].

Which AC50 does the source give for Cc1ccc(-c2noc(CN(C3CCCCC3)S(=O)(=O)c3ccc(Cl)cc3)n2)cc1 here?
Its AC50 is 0.251 µM [falling, partial curve].

For Cc1ccc(CNc2ncnc3c2c(-c2ccccc2)cn3-c2cccc(Cl)c2)cc1, which AC50 is on record?
The AC50 was 1.58 µM [rising, full curve, poor fit].

With COc1ccc(-c2nc3n(n2)C(c2ccccc2F)C(C(=O)Nc2cccnc2)=C(C)N3)cc1OC (stereo not given) as the compound, how does the AC50 read?
The AC50 was 10 µM [falling, partial curve].

For Oc1ccc(Cl)cc1Sc1cc(Cl)ccc1O, which AC50 is on record?
Its AC50 is 1.58 µM [falling, full curve].

For CCCCN(C(=O)c1cccc(S(=O)(=O)N2CCCCC2)c1)C1CCS(=O)(=O)C1 (stereo not given), which AC50 is on record?
Its AC50 is 0.126 µM [rising, full curve].

Which AC50 does the source give for O=C(Nc1ccc(F)c(Cl)c1)N1CCN2CCCCC2C1 (stereo not given) here?
Its AC50 is 5.01 µM [falling, partial curve].

With CCS(=O)(=O)N1Cc2ccccc2CC1C(=O)Nc1nc2ccccc2[nH]1 (stereo not given) as the compound, how does the AC50 read?
The AC50 was 0.0501 µM [falling, full curve].
